This experiment concerns the target MCL-1 (human (endogenous in RH30 and RD)), Q07820. Kind of experiment: co-IP; endogenous MCL-1 immunoprecipitated from 500 μl lysate (up to 1000 μg protein) overnight at 4 °C with 2 μg/ml mouse anti-MCL-1 antibody and pan-mouse IgG or Protein G Dynabeads, washed with CHAPS buffer; NOXA detected by Western blot; RH30 (18 h) and RD (24 h) cells treated with 1 μM AUR and/or 1 μM BSO and/or ERA (RH30: 1 μM, RD: 2 μM). To be noted: remark: other sources report otherwise. A general note: In western blotting, separated proteins are transferred to a membrane and probed.

The values that follow come from article PMC5680568.

Results are given in words; binding and its absence hold for the method and conditions named. Binding seen in cells or lysates may run through a third protein. Some binding calls cover weakened binding; strength is not graded here.

B1: NOXA, Q13794 1-54 (protein)
chain: MPGKKARKNAQPSPARAPAELEVECATQLRRFGDKLNFRQKLLNLISKLFCSGT
Take B1: the binding result is “binds”.
